Some of the results follow. Many values rest on one well or one pass, so single values are uncertain.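 Cells were imaged in 1,536-well plates, and nuclei stained with an antibody against cleaved PARP were counted against all DNA-stained nuclei to give the apoptosis fraction. Screening doses were chosen to leave most cells alive, and resting and induced cleaved-PARP levels differ strongly between cell lines.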
Test system: WM1745
Experiment: cleaved PARP positive nuclei fraction relative to DMSO control; melanoma cells; higher = more apoptosis
Conditions: library dose: low library concentration; 72 h

Row | Structure (SMILES) | cleaved PARP positive nuclei fraction [%]
1 | COc1cc([C@@H]2c3cc4c(cc3[C@@H](O[C@@H]3O[C@@H]5CO[C@@H](C)O[C@H]5[C@H](O)[C@H]3O)[C@H]3COC(=O)[C@H]23)OCO4)cc(OC)c1O [etoposide] + COc1cc(N2CCC(N3CCN(C)CC3)CC2)ccc1Nc1ncc(Cl)c(Nc2ccccc2S(=O)(=O)C(C)C)n1 [NVP-TAE684] (first compound 0.02 µM, partner dose 0.08 µM) | 108
2 | Cc1cc(Nc2cc(N3CCN(C)CC3)nc(Sc3ccc(NC(=O)C4CC4)cc3)n2)n[nH]1 [Tozasertib] + COc1cc(N2CCC(N3CCN(C)CC3)CC2)ccc1Nc1ncc(Cl)c(Nc2ccccc2S(=O)(=O)C(C)C)n1 [NVP-TAE684] (first compound 0.006 µM, partner dose 0.08 µM) | 119
3 | CCCCCCCCCCCCCCCCCCOP(=O)([O-])OC1CC[N+](C)(C)CC1 [Perifosine] + O=S(=O)(c1ccccc1)N(CC(F)(F)F)c1ccc(C(O)(C(F)(F)F)C(F)(F)F)cc1 [T0901317] (first compound 0.4 µM, partner dose 1.4 µM) | 103
4 | CC[C@]1(O)C[C@H]2CN(CCc3c([nH]c4ccccc34)[C@@](C(=O)OC)(c3cc4c(cc3OC)N(C=O)[C@H]3[C@@](O)(C(=O)OC)[C@H](OC(C)=O)[C@]5(CC)C=CCN6CC[C@]43[C@@H]65)C2)C1 [vincristine] + Cn1cncc1[C@@](N)(c1ccc(Cl)cc1)c1ccc2c(c1)c(-c1cccc(Cl)c1)cc(=O)n2C [tipifarnib] (first compound 0.0001 µM, partner dose 0.01 µM) | 120
5 | Cc1cn(-c2cc(NC(=O)c3ccc(C)c(Nc4nccc(-c5cccnc5)n4)c3)cc(C(F)(F)F)c2)cn1 [nilotinib] + CN(NC(=O)CC(=O)NN(C)C(=S)c1ccccc1)C(=S)c1ccccc1 [STA4783] (first compound 0.2 µM, partner dose 0.006 µM) | 196
6 | O=C(/C=C/c1cccnc1)NCCCCC1CCN(C(=O)c2ccccc2)CC1 + O=C(Nc1ccccc1)c1cc([N+](=O)[O-])ccc1Cl [GW9662] (first compound 0.01 µM, partner dose 2 µM) | 80.5
7 | CC[C@]1(O)C[C@H]2CN(CCc3c([nH]c4ccccc34)[C@@](C(=O)OC)(c3cc4c(cc3OC)N(C=O)[C@H]3[C@@](O)(C(=O)OC)[C@H](OC(C)=O)[C@]5(CC)C=CCN6CC[C@]43[C@@H]65)C2)C1 [vincristine] + O=c1cc(-c2cccc3c2Sc2ccccc2S3)oc(N2CCOCC2)c1 [KU55933] (first compound 0.0001 µM, partner dose 1 µM) | 111
8 | N#CC[C@H](C1CCCC1)n1cc(-c2ncnc3[nH]ccc23)cn1 [ruxolitinib] + NCC(=O)Nc1ccc(-n2nc(C(F)(F)F)cc2-c2ccc3c(ccc4ccccc43)c2)cc1 [OSU03012] (first compound 1 µM, partner dose 1 µM) | 91.6
9 | O=c1[nH]nc(Sc2ncc([N+](=O)[O-])s2)n1-c1ccc2c(c1)OCCO2 + CC(C)CCN1c2nc(Nc3cc(F)c(O)c(F)c3)ncc2N(C)C(=O)C1C [BID1870] (first compound 0.2 µM, partner dose 0.2 µM) | 82
10 | Cc1cn(-c2cc(NC(=O)c3ccc(C)c(Nc4nccc(-c5cccnc5)n4)c3)cc(C(F)(F)F)c2)cn1 [nilotinib] + O=C(Nc1cccc(Cl)c1)Nc1ncc(CCNc2ncnc3ccsc23)s1 [SNS314] (first compound 0.2 µM, partner dose 0.0008 µM) | 113
11 | Cc1ccc(Nc2nccc(N(C)c3ccc4c(C)n(C)nc4c3)n2)cc1S(N)(=O)=O [Pazopanib] + O=S(=O)(c1ccccc1)N(CC(F)(F)F)c1ccc(C(O)(C(F)(F)F)C(F)(F)F)cc1 [T0901317] (first compound 0.4 µM, partner dose 1.4 µM) | 104
12 | CCCCCCCCCCCCCCCCCCOP(=O)([O-])OC1CC[N+](C)(C)CC1 [Perifosine] + CC(C)(C)c1cnc(CSc2cnc(NC(=O)C3CCNCC3)s2)o1 [SNS-032] (first compound 0.4 µM, partner dose 0.01 µM) | 128

Test system: WM3526
Experiment: as above
Conditions: library dose: low library concentration; 72 h

Row | Structure (SMILES) | cleaved PARP positive nuclei fraction [%]
13 | O=c1[nH]nc(Sc2ncc([N+](=O)[O-])s2)n1-c1ccc2c(c1)OCCO2 + COc1ccc(COc2ccc(Cc3cnc(N)nc3N)cc2OC)cc1 [GW2580] (first compound 0.2 µM, partner dose 1 µM) | 62.1
14 | COc1cc([C@@H]2c3cc4c(cc3[C@@H](O[C@@H]3O[C@@H]5CO[C@@H](C)O[C@H]5[C@H](O)[C@H]3O)[C@H]3COC(=O)[C@H]23)OCO4)cc(OC)c1O [etoposide] + O=S(=O)(c1ccccc1)N(CC(F)(F)F)c1ccc(C(O)(C(F)(F)F)C(F)(F)F)cc1 [T0901317] (first compound 0.02 µM, partner dose 1.4 µM) | 391
15 | O=c1[nH]nc(Sc2ncc([N+](=O)[O-])s2)n1-c1ccc2c(c1)OCCO2 + O=S(=O)(c1ccccc1)N(CC(F)(F)F)c1ccc(C(O)(C(F)(F)F)C(F)(F)F)cc1 [T0901317] (first compound 0.2 µM, partner dose 1.4 µM) | 271
16 | Cc1cc(Nc2cc(N3CCN(C)CC3)nc(Sc3ccc(NC(=O)C4CC4)cc3)n2)n[nH]1 [Tozasertib] + Cn1cncc1[C@@](N)(c1ccc(Cl)cc1)c1ccc2c(c1)c(-c1cccc(Cl)c1)cc(=O)n2C [tipifarnib] (first compound 0.006 µM, partner dose 0.01 µM) | 56.9
17 | CC[C@]1(O)C[C@H]2CN(CCc3c([nH]c4ccccc34)[C@@](C(=O)OC)(c3cc4c(cc3OC)N(C=O)[C@H]3[C@@](O)(C(=O)OC)[C@H](OC(C)=O)[C@]5(CC)C=CCN6CC[C@]43[C@@H]65)C2)C1 [vincristine] + c1cc(-c2cnn3cc(-c4ccc(OCCN5CCCCC5)cc4)cnc23)ccn1 [Dorsomorphin] (first compound 0.0001 µM, partner dose 0.4 µM) | 118
18 | Cc1ccc(Nc2nccc(N(C)c3ccc4c(C)n(C)nc4c3)n2)cc1S(N)(=O)=O [Pazopanib] + CN(NC(=O)CC(=O)NN(C)C(=S)c1ccccc1)C(=S)c1ccccc1 [STA4783] (first compound 0.4 µM, partner dose 0.006 µM) | 58.7
19 | Cc1cn(-c2cc(NC(=O)c3ccc(C)c(Nc4nccc(-c5cccnc5)n4)c3)cc(C(F)(F)F)c2)cn1 [nilotinib] + COc1ccc(COc2ccc(Cc3cnc(N)nc3N)cc2OC)cc1 [GW2580] (first compound 0.2 µM, partner dose 1 µM) | 34.6
20 | COc1cc([C@@H]2c3cc4c(cc3[C@@H](O[C@@H]3O[C@@H]5CO[C@@H](C)O[C@H]5[C@H](O)[C@H]3O)[C@H]3COC(=O)[C@H]23)OCO4)cc(OC)c1O [etoposide] + C[C@@H]1CCN(C(=O)CC#N)C[C@@H]1N(C)c1ncnc2[nH]ccc12 [CP690550] (first compound 0.02 µM, partner dose 1 µM) | 54
21 | Cc1cn(-c2cc(NC(=O)c3ccc(C)c(Nc4nccc(-c5cccnc5)n4)c3)cc(C(F)(F)F)c2)cn1 [nilotinib] + Cn1cc(/C=C2\C(=O)Nc3cccnc32)c2ccccc21 [GW441756] (first compound 0.2 µM, partner dose 0.4 µM) | 219
22 | Cc1cn(-c2cc(NC(=O)c3ccc(C)c(Nc4nccc(-c5cccnc5)n4)c3)cc(C(F)(F)F)c2)cn1 [nilotinib] + O=c1cc(-c2cccc3c2Sc2ccccc2S3)oc(N2CCOCC2)c1 [KU55933] (first compound 0.2 µM, partner dose 1 µM) | 80
23 | CC[C@]1(O)C[C@H]2CN(CCc3c([nH]c4ccccc34)[C@@](C(=O)OC)(c3cc4c(cc3OC)N(C=O)[C@H]3[C@@](O)(C(=O)OC)[C@H](OC(C)=O)[C@]5(CC)C=CCN6CC[C@]43[C@@H]65)C2)C1 [vincristine] + NC(=O)Nc1cc(-c2cccc(F)c2)sc1C(=O)N[C@H]1CCCNC1 [AZD7762] (first compound 0.0001 µM, partner dose 0.02 µM) | 134
24 | CCCCCCCCCCCCCCCCCCOP(=O)([O-])OC1CC[N+](C)(C)CC1 [Perifosine] + COc1ccc2c(c1)CCC1C2CCC2(C)C(NCCCCCCN3C(=O)C=CC3=O)CCC12 [U73122] (first compound 0.4 µM, partner dose 0.4 µM) | 82.4
25 | Cc1cn(-c2cc(NC(=O)c3ccc(C)c(Nc4nccc(-c5cccnc5)n4)c3)cc(C(F)(F)F)c2)cn1 [nilotinib] + Cc1ccc(NC(=O)c2cccc(N(C)C)c2)cc1NC(=O)c1ccc(O)cc1 [ZM336372] (first compound 0.2 µM, partner dose 2 µM) | 103
26 | CC[C@]1(O)C[C@H]2CN(CCc3c([nH]c4ccccc34)[C@@](C(=O)OC)(c3cc4c(cc3OC)N(C=O)[C@H]3[C@@](O)(C(=O)OC)[C@H](OC(C)=O)[C@]5(CC)C=CCN6CC[C@]43[C@@H]65)C2)C1 [vincristine] + O=C(Nc1cccc(Cl)c1)Nc1ncc(CCNc2ncnc3ccsc23)s1 [SNS314] (first compound 0.0001 µM, partner dose 0.0008 µM) | 41.2

Some of the entries above in another layout:
Row	Structure (SMILES)	cleaved PARP positive nuclei fraction [%]
21	Cc1cn(-c2cc(NC(=O)c3ccc(C)c(Nc4nccc(-c5cccnc5)n4)c3)cc(C(F)(F)F)c2)cn1 [nilotinib] + Cn1cc(/C=C2\C(=O)Nc3cccnc32)c2ccccc21 [GW441756] (first compound 0.2 µM, partner dose 0.4 µM)	219
22	Cc1cn(-c2cc(NC(=O)c3ccc(C)c(Nc4nccc(-c5cccnc5)n4)c3)cc(C(F)(F)F)c2)cn1 [nilotinib] + O=c1cc(-c2cccc3c2Sc2ccccc2S3)oc(N2CCOCC2)c1 [KU55933] (first compound 0.2 µM, partner dose 1 µM)	80
